Here are results for one compound from patent publication US10752588B2 (The Broad Institute, Inc., priority 2014, dated 2020).

For part of its entries the source gives two or more results. They are shown here; other results are not. There may be further records. The values listed for one entry seem to repeat one measurement (runs, samples, wells or individuals).

The series in a line: Pharmacokinetic studies on mice, plasma and brain. The following applies: i.p., 10 mg/kg single dose, male C57BL/6 mice.

In general, Cmax refers to the maximum level reached in the sampled fluid or tissue.

As to `COc1cccc(C(NC(=O)C2CCN(CCOc3ccccc3)CC2)c2ccccn2)c1` (single isomer, unassigned), under “brain”, the AUCINF is 3.03 hr*μmol/L and 1347.55 μg/L*hr; the AUClast was 3.00 hr*μmol/L and 1335.28 μg/L*hr; the Cmax is 1.66 µM and 740.63 μg/L. Under “plasma”, the AUCINF was 3.39 hr*μmol/L and 1507.16 μg/L*hr; the AUClast was 3.31 hr*μmol/L and 1470.78 μg/L*hr; the CL is 2.96 mg/(hr*μmol/L)/kg and 6.64 L/hr/kg; the highest concentration (Cmax) is 1.59 µM and 709.91 μg/L. Moreover, the Vss (plasma) was 6.89 mg/(μmol/L)/kg and 15.48 L/kg.
